Measured values reported in PubChem BioAssay AID328 (DTP/NCI, 2004).
The list is a part of this screen's results and no random one: it gathers tests that were run many times, whatever their T/C, doses with no T/C, and many T/C values between a quarter and a half above the control. Further doses and runs are listed elsewhere. T/C: endpoint of the treated group in % of that of the vehicle group. Some entries give survivors of the animals treated and no T/C: the source files T/C as zero there, which appears to mark a toxic dose or a test without result, not a measured value. Some doses without a T/C left all or most animals alive at the check, yet need not have been tolerated: the source hardly ever lists a survival T/C far under the control, and the zero likely stands for such cases as well. Survivors were counted at the toxicity check, usually on the fifth day, unless a day is given; later deaths do not show. Schedules are NCI's codes, taken here to give the interval after Q, in days (D) or hours (H), and the number of doses after X. For survival time, the PubChem record calls one and a half times the control and up active, and a quarter to a half above the control has no call in these data; cut-offs in other NCI protocols can differ. Some entries hold several experiments; the values are given in rising order. Some T/C values carry the count of animals alive at the toxicity check (mostly the fifth day); where none is given, no animal had died by that day.

System: BDF1 mice, P388 leukemia ip, median survival T/C
Test: NCI In Vivo Anticancer Drug Screen. Data for tumor model P388 Leukemia (intraperitoneal) in B6D2F1 (BDF1) mice
Conditions: T/C endpoint: median survival time, higher T/C = longer survival
Procedure, shortened: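 T/C = treated-group survival ÷ vehicle-control survival; tumour transplanted into mice before dosing.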

[1] = dose: 100.0 mg/kg/injection, schedule: Q01DX009 (ip), vehicle: saline with Tween-80
[2] = dose: 200.0 mg/kg/injection, schedule: Q01DX009 (ip), vehicle: saline
[3] = dose: 400.0 mg/kg/injection, schedule: Q04DX003 (ip), vehicle: saline
[4] = dose: 200.0 mg/kg/injection, schedule: Q01DX009 (ip), vehicle: saline with Tween-80

Cc1cc(=O)n2c3c(c4c(cc13)c(CBr)cc(=O)n4C)OC2
T/C (dose: 100.0 mg/kg/injection, schedule: Q01DX001 (ip), vehicle: Klucel (hydroxypropylcellulose) (HPC)): 135 % of control | T/C (dose: 200.0 mg/kg/injection, schedule: Q01DX001 (ip), vehicle: Klucel (hydroxypropylcellulose) (HPC)): 135 % of control | T/C (dose: 400.0 mg/kg/injection, schedule: Q01DX001 (ip), vehicle: Klucel (hydroxypropylcellulose) (HPC)): 125 % of control

O=C(O)CCC(=O)/C=C1/Nc2ccccc2C1=O
survivor count (dose: 400.0 mg/kg/injection, schedule: Q04DX003 (ip), vehicle: saline with Tween-80): 2 of 6

CC(=O)Nc1ccc2c(c1)C[N+](C)(C1CCCCC1)CO2 (stereo not drawn)
survivor count [1]: 4 of 6

N=C(N)Sc1cc(O)ccc1O
T/C (dose: 37.5 mg/kg/injection, schedule: Q01DX009 (ip), vehicle: saline): 148 % of control | T/C (dose: 75.0 mg/kg/injection, schedule: Q01DX009 (ip), vehicle: saline): 129 % of control | T/C (dose: 100.0 mg/kg/injection, schedule: Q01DX009 (ip), vehicle: saline): 136 % of control | T/C (dose: 150.0 mg/kg/injection, schedule: Q01DX009 (ip), vehicle: saline): 132 and 140 % of control | T/C [2]: 131 % of control | T/C (dose: 300.0 mg/kg/injection, schedule: Q01DX009 (ip), vehicle: saline): 138 % of control [5 of 6 alive]

Cc1ccc(NC(=S)C#N)cc1Cl
survivor count (dose: 50.0 mg/kg/injection, schedule: Q01DX005 (ip), vehicle: saline with Tween-80): 3 of 5 | survivor count (dose: 100.0 mg/kg/injection, schedule: Q01DX005 (ip), vehicle: saline with Tween-80): 0 of 5 | survivor count (dose: 200.0 mg/kg/injection, schedule: Q01DX005 (ip), vehicle: saline with Tween-80): 0 of 5

CCOC(=O)c1c(N)ssc1=S
survivor count (dose: 400.0 mg/kg/injection, schedule: Q01DX009 (ip), vehicle: saline): 3 of 6 | survivor count [3]: 4 of 6 | survivor count (dose: 600.0 mg/kg/injection, schedule: Q01DX009 (ip), vehicle: saline): 0 of 6

Cc1sc2c(c1-c1ccccc1)C(=O)CCCN2
T/C (dose: 400.0 mg/kg/injection, schedule: Q01DX005 (ip), vehicle: saline with Tween-80): 128 % of control [5 of 6 alive]

Oc1ccccc1C=NCCN1CC1.Oc1ccccc1C=NCCN1CC1.[Cu]
T/C (dose: 12.5 mg/kg/injection, schedule: Q01DX001 (ip), vehicle: saline sonified): 136 % of control

C1CCNCC1.COc1ccccc1C(=O)[CH-]C(=O)C(F)(F)F.COc1ccccc1C(=O)[CH-]C(=O)C(F)(F)F.COc1ccccc1C(=O)[CH-]C(=O)C(F)(F)F.COc1ccccc1C(=O)[CH-]C(=O)C(F)(F)F.[Eu+3]
T/C [2]: 126 % of control

COc1c(C)c2c3c4c1C(=O)C(=CC4=O)NC(=O)/C(C)=C\C=C\C(C)C1OC(C)(C)OC(C1C)C(C)C(OC(C)=O)C(C)C(OC)/C=C/OC(C)(O2)C3=O (stereo not drawn)
survivor count [1]: 6 of 6 | survivor count [4]: 6 of 6

ClCc1c2ccccc2c(CCl)c2ccccc12
T/C (dose: 0.5 mg/kg/injection, schedule: Q04DX003 (ip), vehicle: Klucel (hydroxypropylcellulose) (HPC)): 126 % of control | T/C (dose: 0.67 mg/kg/injection, schedule: Q01DX009 (ip), vehicle: saline): 140 % of control | T/C (dose: 0.75 mg/kg/injection, schedule: Q01DX009 (ip), vehicle: Klucel (hydroxypropylcellulose) (HPC)): 142 % of control | T/C (dose: 0.8 mg/kg/injection, schedule: Q04DX003 (ip), vehicle: Klucel (hydroxypropylcellulose) (HPC)): 130 % of control | T/C (dose: 1.3 mg/kg/injection, schedule: Q04DX003 (ip), vehicle: Klucel (hydroxypropylcellulose) (HPC)): 141 % of control | survivor count (dose: 12.0 mg/kg/injection, schedule: Q01DX009 (ip), vehicle: Klucel (hydroxypropylcellulose) (HPC)): 6 of 6 | T/C (dose: 12.5 mg/kg/injection, schedule: Q04DX003 (ip), vehicle: Klucel (hydroxypropylcellulose) (HPC)): 146 % of control | T/C (dose: 18.0 mg/kg/injection, schedule: Q04DX003 (ip), vehicle: Klucel (hydroxypropylcellulose) (HPC)): 145 % of control | T/C (dose: 25.0 mg/kg/injection, schedule: Q04DX003 (ip), vehicle: Klucel (hydroxypropylcellulose) (HPC)): 142 % of control | survivor count (dose: 50.0 mg/kg/injection, schedule: Q04DX003 (ip), vehicle: Klucel (hydroxypropylcellulose) (HPC)): 6 of 6 | survivor count (dose: 100.0 mg/kg/injection, schedule: Q04DX003 (ip), vehicle: Klucel (hydroxypropylcellulose) (HPC)): 6 of 6 | survivor count (dose: 200.0 mg/kg/injection, schedule: Q04DX003 (ip), vehicle: Klucel (hydroxypropylcellulose) (HPC)): 6 of 6 | survivor count (dose: 400.0 mg/kg/injection, schedule: Q04DX003 (ip), vehicle: Klucel (hydroxypropylcellulose) (HPC)): 5 of 6

CN(C)c1ccc(/C=C/c2ccc3ccccc3[n+]2C)cc1
T/C (dose: 0.78 mg/kg/injection, schedule: Q01DX009 (ip), vehicle: saline with Tween-80): 125 % of control | T/C (dose: 1.56 mg/kg/injection, schedule: Q01DX009 (ip), vehicle: saline with Tween-80): 135 % of control [5 of 6 alive] | survivor count (dose: 1.8 mg/kg/injection, schedule: Q01DX009 (ip), vehicle: Klucel (hydroxypropylcellulose) (HPC)): 6 of 6 | T/C (dose: 2.6 mg/kg/injection, schedule: Q01DX009 (ip), vehicle: Klucel (hydroxypropylcellulose) (HPC)): 130 % of control | T/C (dose: 3.12 mg/kg/injection, schedule: Q01DX009 (ip), vehicle: saline with Tween-80): 125 % of control | T/C (dose: 4.0 mg/kg/injection, schedule: Q01DX009 (ip), vehicle: Klucel (hydroxypropylcellulose) (HPC)): 130 % of control | T/C (dose: 6.0 mg/kg/injection, schedule: Q01DX009 (ip), vehicle: Klucel (hydroxypropylcellulose) (HPC)): 140 % of control | survivor count (dose: 25.0 mg/kg/injection, schedule: Q01DX009 (ip), vehicle: saline): 1 of 6 | survivor count (dose: 50.0 mg/kg/injection, schedule: Q01DX009 (ip), vehicle: saline): 0 of 6

C[NH-].C[NH-].[I][Pt+2][I]
T/C (dose: 6.25 mg/kg/injection, schedule: Q04DX003 (ip), vehicle: other): 137 % of control | T/C (dose: 25.0 mg/kg/injection, schedule: Q04DX003 (ip), vehicle: other): 136 and 137 % of control

CCOC(=O)c1cccc(OP(=O)(N(C)C)N(C)C)c1
survivor count [4]: 0 of 6

C=C(C)[C@@]12O[C@@]3(CCCCCCCCC)O[C@@H]1[C@@H]1[C@@H]4O[C@]4(CO)[C@@H](O)[C@]4(O)C(=O)C(C)=CC4[C@@]1(O3)[C@H](C)[C@H]2OC(=O)c1ccccc1 (stereo partly drawn)
T/C (dose: 12.5 micrograms/kg/injection, schedule: Q01DX009 (ip), vehicle: saline + alcohol): 135 % of control | T/C (dose: 25.0 micrograms/kg/injection, schedule: Q01DX009 (ip), vehicle: saline + alcohol): 148 % of control | T/C (dose: 50.0 micrograms/kg/injection, schedule: Q01DX009 (ip), vehicle: saline + alcohol): 146 % of control | T/C (dose: 100.0 micrograms/kg/injection, schedule: Q01DX009 (ip), vehicle: saline + alcohol): 135 % of control [5 of 6 alive] | T/C (dose: 200.0 micrograms/kg/injection, schedule: Q01DX009 (ip), vehicle: saline + alcohol): 143 % of control

CCCCNC(C)(C)CCl
survivor count (dose: 6.25 mg/kg/injection, schedule: Q01DX009 (ip), vehicle: water): 6 of 6 | survivor count (dose: 50.0 mg/kg/injection, schedule: Q04DX003 (ip), vehicle: water): 5 of 6 | survivor count (dose: 100.0 mg/kg/injection, schedule: Q04DX003 (ip), vehicle: water): 3 of 6 | survivor count (dose: 200.0 mg/kg/injection, schedule: Q04DX003 (ip), vehicle: water): 0 of 6

O=C(O)C1(C(=O)O)CC2CC=CCC2C1 (stereo not drawn)
survivor count [3]: 1 of 6

CCOC(=O)C(=O)CC(=O)/C=C/c1ccccc1
survivor count (dose: 400.0 mg/kg/injection, schedule: Q01DX009 (ip), vehicle: saline with Tween-80): 5 of 6
